Measurements reported in US5658888A, “Erythromycin derivatives” (Chugai Seiyaku Kabushiki Kaisha, priority 1992, dated 1997).
Where two headings read alike, the source gives them in different places. The name of at least one read-out is uncertain.

Protein sequences, listed by entry. Tags and fused reporters are not part of them. Residues count along the entry.
UniProt G1T803, 1-400: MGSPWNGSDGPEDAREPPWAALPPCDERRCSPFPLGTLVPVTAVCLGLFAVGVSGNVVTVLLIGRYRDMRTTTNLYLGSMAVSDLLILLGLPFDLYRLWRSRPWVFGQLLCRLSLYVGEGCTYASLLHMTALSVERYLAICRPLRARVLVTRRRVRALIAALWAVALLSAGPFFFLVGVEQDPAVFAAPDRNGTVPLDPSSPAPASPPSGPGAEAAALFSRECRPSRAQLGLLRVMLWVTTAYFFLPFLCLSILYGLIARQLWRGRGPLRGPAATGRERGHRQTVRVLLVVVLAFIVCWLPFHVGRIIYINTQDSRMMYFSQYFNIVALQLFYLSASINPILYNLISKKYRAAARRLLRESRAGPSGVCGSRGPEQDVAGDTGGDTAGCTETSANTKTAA

Biological target: T1, motilin receptor (Oryctolagus cuniculus, UniProt G1T803)
T1 construct: From a killed rabbit was removed the duodenum; from tissue; host or cells: rabbit duodenum homogenate (mucous membrane detached from the tunica muscularis, homogenized in 50 mM Tris pH 7.4)
Assay: motilin receptor binding test (displacement of 125I-labelled motilin)
Parameters: species or system rabbit
Protocol: A motilin receptor binding test was conducted in the manner described hereunder [V. Bormans, et al., Regul. Peptides, 15, 143 (1986)].
From a killed rabbit was removed the duodenum, of which the mucous membrane was detached from the tunica muscularis and then homogenized in a 50 mM Tris solution (pH 7.4) to prepare a protein solution. Twenty-five pM of ^125 I-labelled motilin (purchased from Ohtsuka Assay Laboratory) and the protein solution were incubated at 25° C. for 120 minutes, after which the radioactivity of the protein was measured with a γ-ray counter, the difference between the radioactivity observed in the case of non-addition of motilin and that observed in the case of addition of an excess (1×10^-7 m) of motilin being defined as the specific binding capacity. The efficacies of the samples were expressed as IC50 (M), the concentration of each of the test drugs which reduces the specific binding capacity to 50%. The test drug was dissolved in a DMSO solution and added to the protein solution (the final DMSO concentration:1%). In experiments on investigation of the acid resistance, the test drug was dissolved in a hydrochloric acid solution (pH 2.5) which was then allowed to stand at room temperature for 120 minutes prior to its addition to the protein solution for the experiments.

For `CC[C@H]1OC(=O)[C@H](C)[C@@H](O[C@H]2C[C@@](C)(OC)[C@@H](O)[C@H](C)O2)[C@H](C)[C@@H](O[C@@H]2O[C@H](C)C[C@H](N(C)CC)[C@H]2O)[C@@]2(C)CC(C)=C(O2)[C@H](C)[C@@H](O)[C@]1(C)O` [EM-523, reference compound], the IC50 (test drug in DMSO solution (final DMSO 1%), rabbit duodenum, 25 pM 125I-motilin, 25° C., 120 min, pH 7.4, read-out: IC50, Solution in DMSO) was 2.6 nM and the IC50 (test drug stood in hydrochloric acid solution (pH 2.5) at room temperature for 120 minutes before the assay, read-out: IC50, Solution in HCl) was 260 nM.
